Data taken from ChEMBL document CHEMBL3988442, “University of Dundee, Small-Polar-MMV Screening Library” (2021).

Values are the deposited “Percent Effect”, in %.
How 0% and 100% were set is not recorded. Most values in the screen are low, and negative values occur.
The compounds are a random part of those screened.
Two or more numbers in one place are separate tests of the same structure; such repeats can differ widely.

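Viability assay of Plasmodium falciparum sporozoites; the read-out is not stated. The concentration is filed as 10 mM, unlikely as a test dose, so the dose is not known. Direction is inferred from retests: higher values go with lower viability. Strong results were mostly tested again. Of about 34,000 compounds tested this way, about 280 (0.84%) reached 50% or more in at least one test.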

| # | Compound | effect |
|---|---|---|
| 1 | `COCc1nc(CNc2cc(C)on2)cs1` | -9.778 |
| 2 | `[H][C@@]12CC[C@H](Oc3cccc(F)c3)[C@]1([H])CN(C(=O)c1cnco1)C2` | -21.21 |
| 3 | `Cc1nnc2n1CCN(C(=O)COCCOc1ccccc1)C2` | -23.95 and -0.2387 and -33.03 |
| 4 | `O=C(c1cccn1Cc1cccs1)N1CCN(C2CC2)CC1` | 0 |
| 5 | `COCCN1CC(O)CN(C(=O)c2ccc(SC)cc2)CC1=O` (configuration not stated) | 10.63 |
| 6 | `COc1ccc(C(=O)COc2coc(CN3CCSCC3)cc2=O)cc1` | -11.17 |
| 7 | `Cc1[nH]ccc1C(=O)N1CCCC(c2ccc(C(=O)O)cc2)C1` (configuration not stated) | 5.013 |
| 8 | `CC(=O)N[C@@H]1CN(S(=O)(=O)Cc2ccccc2)C[C@H]1C(C)C` | -3.7 |
| 9 | `CCc1noc(C)c1C(=O)N1CCCN(Cc2cscn2)CC1` | -1.531 |
| 10 | `CNc1cc(C2CCCN2C(=O)c2ccc3oc(=O)n(C)c3c2)ccn1` (configuration not stated) | -5.889 |
| 11 | `Cc1[nH]c(=O)c(C#N)cc1C(=O)N1C[C@@H](CN2CCCC2)C[C@H](CO)C1` | 4.47 |
| 12 | `CSC1(CNC(=O)N(C)Cc2ccc(Cl)s2)CCOCC1` | -30.4 and -29.73 and -6.649 |
| 13 | `CNC(=O)C(NC(=O)c1nccn2ccnc12)c1ccc(F)c(F)c1` (configuration not stated) | -1.804 |
| 14 | `Cc1nc(C)n(CC2CCCN2Cc2nc(C)c3ccccc3n2)n1` (configuration not stated) | -2.259 and 3.096 and -20.58 |
| 15 | `CCc1noc(C)c1C(=O)N(C)Cc1ncc(C)c(OC)c1C` | -15.72 |
| 16 | `Cc1ccc(CN2CCC3(CCCN(S(C)(=O)=O)C3)C2)o1` (configuration not stated) | 11.72 |
| 17 | `CC(C)(C#N)c1ccccc1CN(CCO)Cc1ccsc1` | -4.087 |
| 18 | `COc1cccc2cc(CNCc3ccnc(N4CCCCC4)c3)oc12` | -0.1329 and 4.518 and -11.85 |
| 19 | `COc1cccc(CN(C)Cn2nc(C(C)(C)C)ccc2=O)c1` | 9.257 |
| 20 | `CCn1cc(-c2cncn2CCc2ccc3c(c2)OCCO3)cn1.Cl` | 15.6 and 19.24 and 2.904 |
| 21 | `COc1ccc(C2CCCN2C(=O)c2csc(NC(C)=O)n2)cc1` (configuration not stated) | -2.944 |
| 22 | `COc1ccc(CC2CN(C(=O)c3coc(C)n3)CCO2)cc1` (configuration not stated) | 6.522 |
| 23 | `CC(C#N)CN(C)Cc1nc2c(cnn2C)c(=O)[nH]1` (configuration not stated) | -7.066 |
| 24 | `CN(C(=O)CNCCn1cccn1)C1(C#N)CCCCC1` | 5.861 |
| 25 | `Cc1cnn(C2CCCN(C(=O)CCNS(C)(=O)=O)C2)c1` (configuration not stated) | 17.34 |
| 26 | `CCOC(=O)N1CCN(C(=O)c2ccc3ccn(C)c3c2)CC1` | -5.509 |
| 27 | `CCC(=O)Nc1ccc(N2CCC(OC)CC2)c(C(F)(F)F)c1` | 1.93 |
| 28 | `O=C(C1CCC1)N1CCc2onc(Cn3cccn3)c2C1` | -14.84 |
| 29 | `Fc1ccc(OCCCN2CCOC(Cn3cncn3)C2)cc1` (configuration not stated) | -7.876 |
| 30 | `CN(Cc1ccsc1)C(=O)CN1CCOC(Cn2cccn2)C1` (configuration not stated) | 12.44 |
| 31 | `Cc1cc(S(=O)(=O)N2CCCc3ccccc32)sc1C(=O)O` | 25.49 |
| 32 | `Cc1nn(C)c(C)c1OCC(=O)NCC(O)Cc1ccccc1` (configuration not stated) | 4.71 |
| 33 | `Cc1ccc(CN2Cc3ccccc3O[C@]3(CC[C@H](CO)CC3)C2)o1.Cl` | 14.39 |
| 34 | `N#Cc1cccnc1N1CCCN(C(=O)CCn2cncn2)CC1` | 4.635 |
| 35 | `Cc1cc(N2CCC(c3n[nH]c4nccnc34)CC2)ncn1` | 7.584 |
| 36 | `CC(C)C(=O)Nc1ccc(C(O)Cn2nc(-c3cccs3)oc2=O)cc1` (configuration not stated) | -5.637 |
| 37 | `CCn1cc2c(n1)C(COC)CN(C(=O)c1ccccn1)C2` (configuration not stated) | -3.163 |
| 38 | `Cc1ccccc1NC1CCN(C(=O)CCc2ccco2)CC1` | 14.47 |
| 39 | `CN(C)S(=O)(=O)c1ccc(CN2CCCC2c2cccs2)o1` (configuration not stated) | 1.001 |
| 40 | `CCn1nccc1C(=O)NC(Cn1cccn1)C(C)(C)C` (configuration not stated) | -3.541 |
| 41 | `Cc1cc(C(=O)Nc2ccc3oc(=O)n(CCN(C)C)c3c2)c(C)o1` | 0.4902 |
| 42 | `CN(CCc1ccccc1)Cc1c(C2CCNCC2)[nH]c2ncccc12.Cl` | -0.2567 |
| 43 | `CN1CCCC1c1ccnc(-c2ccccn2)n1` (configuration not stated) | 2.877 |
| 44 | `Cc1cccc(CNC(=O)CNc2cc(CO)ccc2Cl)c1` | -14.54 |
| 45 | `CCc1ncc2c(n1)CN(CC(=O)NCCOc1ccccc1)CC2` | -0.0815 |
| 46 | `Cn1cc(CNC2CCc3ncnn3C2)c(-c2ccncc2)n1` (configuration not stated) | -13.14 |
| 47 | `O=C1CCCCCN1Cc1ncnn1Cc1c(F)cccc1Cl` | 2.923 |
| 48 | `O=C(O)C(F)(F)F.[H][C@]12CC[C@@]3(N=C(C)N(CC4CC4)C3=O)[C@@]1([H])CN(Cc1ccccc1F)C2` | -22.32 |
| 49 | `CC(=O)NC1CCCN(C(=O)Nc2nnc(C(C)C)s2)C1` (configuration not stated) | 68.35 and 80.73 |
| 50 | `c1cnc(-c2nc(CN3CCC(c4ccn[nH]4)CC3)cs2)nc1` | 5.764 |
| 51 | `Cc1cnn(CCNCc2ccccc2OCc2ccccn2)c1` | -0.6057 |
| 52 | `COc1ccc(OCC(=O)NC(C)c2ccc(F)cc2)c(C(=O)O)c1` (configuration not stated) | -20.07 |
| 53 | `O=C(O)C(F)(F)F.O=C1N(Cc2ccncc2)CCC12CCCN(c1ncc(F)cn1)C2` (configuration not stated) | 8.666 |
| 54 | `NC1(CNC(=O)c2cc3ccccc3[nH]2)CCCC1` | -7.53 |
| 55 | `O=C(O)C(F)(F)F.O=C(O)C(F)(F)F.O=C(O)C(F)(F)F.c1ccc(CN2CCc3nnc(COc4ccccn4)n3CC2)nc1` | -4.38 |
| 56 | `[H][C@@]12CCN(Cc3ccncc3)C[C@]1([H])O[C@H](C(=O)N(C)C)C2` | -8.759 |
| 57 | `NC(=O)c1ccc(NC(=O)Cn2cc(I)cn2)cc1` | 84.67 and 86.35 and 89.46 |
| 58 | `CCOC1CCC2(CCN(C(=O)c3c[nH]cn3)CC2)c2ccccc21` (configuration not stated) | -6.25 |
| 59 | `O=S1(=O)CCC(n2nc(Cc3cccs3)nc2-c2cnccn2)C1` (configuration not stated) | 1.842 |
| 60 | `CCS(=O)(=O)CCN1CCCC1c1noc(C)n1` (configuration not stated) | 0.8937 |
| 61 | `COc1ccc(NC(=O)N(CC2CCOC2)C2CC2)cn1` (configuration not stated) | 12.8 |
| 62 | `CCc1nc(CNC2CCCc3c2cnn3CC)cs1` (configuration not stated) | -15.59 and -14.06 |
| 63 | `Cc1csc(C2CCCN(C(=O)c3cccc4c3OCO4)C2)n1` (configuration not stated) | -19.97 and -31.53 and 1.144 |
| 64 | `Cc1c(NCCOCC(F)(F)F)cccc1C(=O)N1CCCC1` | -12.79 |
| 65 | `Cc1noc(C)c1C(=O)N[C@@H]1CC[C@@H](Oc2ccccc2)[C@@H]1O` | 0.2567 |
| 66 | `[H][C@@]12CCN(Cc3c(C)noc3C)C[C@@]1([H])O[C@H](c1ccnc(C)n1)C2` | -5.113 |
| 67 | `CN(Cc1ccccc1)C(=O)CN1CCOC(Cn2cncn2)C1` (configuration not stated) | 3.056 |
| 68 | `COCCN1CCN(c2cccc(C)n2)Cc2ccc(C)nc21.O=C(O)C(F)(F)F.O=C(O)C(F)(F)F` | 21.6 |
| 69 | `CS(=O)(=O)c1cn[nH]c1C1CCCCN1C(=O)c1cncs1` (configuration not stated) | 12.83 |
| 70 | `CC(=O)N1CCC(n2nccc2-c2cnc(NCCO)nc2)CC1` | 2.117 |
| 71 | `CN(Cc1ccnc2ccccc12)C1CCS(=O)(=O)C1.O=C(O)CC(O)(CC(=O)O)C(=O)O` (configuration not stated) | 4.746 |
| 72 | `CN1CCN(CCCNC(=O)c2cc(Cl)c3c(c2)OCO3)CC1` | -6.271 |

The first 4 entries again:

Compound,effect
COCc1nc(CNc2cc(C)on2)cs1,-9.778
[H][C@@]12CC[C@H](Oc3cccc(F)c3)[C@]1([H])CN(C(=O)c1cnco1)C2,-21.21
Cc1nnc2n1CCN(C(=O)COCCOc1ccccc1)C2,-23.95 and -0.2387 and -33.03
O=C(c1cccn1Cc1cccs1)N1CCN(C2CC2)CC1,0